The whole screen tested about 350,000 compounds, of which about 6,000 (1.7%) were called active. The inconclusive results got no clear call from the source; some entries with a clear call stand among them for comparison. No stated cut-off is given here; in the data, active means CPE inhibition above about 20% (passing the limit was not always enough); inconclusive means no clear call, values can overlap the other calls; tested in BHK-21 cells.
Experiment: protection of cells from dengue 2 killing – plate reader, single concentration, primary screen (AID 651640);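 further: 0% = median of neutral control wells and 100% = median of positive control wells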
Conditions: DENV2-infected cells, cytopathic effect rescue, at 9.99 µM, hits give high values

Row | SMILES | CPE inhibition
1 | Cc1nccn1CC(O)COc1ccc(Cl)cc1Cl (stereo unspecified) | active: 31.1%
2 | CCN(Cc1nc2ccccc2c(=O)[nH]1)C(=O)c1ccc(C)c(NC(=O)c2ccco2)c1 | inconclusive: 46.8%
3 | COCC(=O)N1C[C@H](C)[C@@H](OC)CN(C)C(=O)c2ccc(NC(=O)c3ccc(F)cc3)cc2OC[C@H]1C | inactive: -6.3%
4 | Cc1cc(Br)cn2c(Cc3cccc(Cl)c3)c(-c3cccc(Cl)c3)nc12 | inactive: -13.8%
5 | CCCNC(=O)N(C)C[C@H]1Oc2ncc(C#CC3CCCCC3)cc2C(=O)N([C@@H](C)CO)C[C@@H]1C | inconclusive: 31.1%
6 | CC1(C(=O)Nc2cccnc2)Cc2c(-c3ccc4c(c3)OCO4)ccnc2O1 (stereo unspecified) | inconclusive: 40.7%
7 | CC(=O)c1ccc(N2CCN(C(=O)Cc3n[nH]c(=O)c4ccccc34)CC2)cc1 | inactive: 0.663%
8 | CN1C(=O)c2cc(NC(=O)c3ccccc3)ccc2OC[C@@H]2O[C@@H](CC(=O)O)CC[C@H]21 | inconclusive: 20.4%
9 | CC(CCc1ccccc1)NCc1ccc(Cl)cc1Cl (stereo unspecified) | inactive: 4.26%
10 | COc1ccc(NC(=O)N(C)C[C@H]2OCCCC[C@@H](C)Oc3ccc(NS(C)(=O)=O)cc3C(=O)N([C@H](C)CO)C[C@H]2C)cc1 | active: 95%
11 | Cc1cccc(NC(=O)CN(C)S(=O)(=O)c2ccc3c(c2)n(C)c(=O)c(=O)n3C)c1C | inconclusive: 23.1%
12 | CN(C)C(=O)c1ccc(-c2ccc([C@@H]3[C@H](CO)N4CCCCN(CCC(F)(F)F)C[C@@H]34)cc2)cc1 | inconclusive: 22.6%
13 | C/C=C/c1ccc(C2[C@@H]3CN(C(=O)Nc4ccccc4OC)C[C@H]2N3)cc1 (stereo partly specified) | inconclusive: 23.4%
14 | CCc1nnc(NS(=O)(=O)c2ccc(NC(=O)C(c3ccccc3)c3ccccc3)cc2)s1 | inactive: -1.91%
15 | Cc1ccc(C(=O)c2ncc[nH]2)cc1 | active: 51.9%
16 | CCCSc1nc2c(cnn2-c2ccc(F)cc2)c(=O)[nH]1 | inconclusive: 42.8%
17 | COc1ccccc1-c1ccc(C2[C@@H]3CN(C(=O)c4ccncc4)C[C@H]2N3)cc1 (stereo partly specified) | inconclusive: 29.6%
18 | O=c1cc(-c2ccccc2)[nH]c2cc(F)ccc12 | inactive: -7.41%
19 | C[C@H]1CN([C@@H](C)CO)C(=O)c2cc(NC(=O)Nc3ccccc3)ccc2O[C@@H]1CN(C)S(=O)(=O)c1cn(C)cn1 | inactive: 1.19%
20 | COc1cccc(NC(=O)COc2cc(C)cc3oc(=O)cc(C)c23)c1 | inconclusive: 27.2%
21 | C[C@@H]1CN([C@@H](C)CO)C(=O)c2cc(NC(=O)Nc3ccccc3)ccc2O[C@@H](C)CCCCO[C@H]1CN(C)CC1CCCCC1 | inactive: 18.5%
22 | COc1ccc(NC(=O)Nc2ccc3c(c2)CC(=O)N([C@@H](C)CO)C[C@H](C)[C@@H](CN(C)S(=O)(=O)c2cccs2)O3)cc1 | inconclusive: 32.1%
23 | COc1ccc(S(=O)(=O)N(C)C[C@@H]2OCCCC[C@H](C)Oc3ccc(NS(=O)(=O)c4ccc(F)cc4)cc3C(=O)N([C@@H](C)CO)C[C@@H]2C)cc1 | inconclusive: 43.7%

Row | SMILES | CPE inhibition
24 | O=C(CCN1CCCCC1)NCC[C@@H]1CC[C@H](NC(=O)C2CCC2)[C@@H](CO)O1 | active: 45.7%
25 | O=C(CSc1n[nH]c(-c2ccccc2Cl)n1)NCc1cccc(C(=O)O)c1 | inconclusive: 39.7%
26 | Cn1cnc(S(=O)(=O)N[C@@H]2CC[C@@H](CC(=O)N3CCN(c4ccccc4)CC3)O[C@H]2CO)c1 | inactive: -6.48%
27 | COC(=O)[C@H]1C[C@@]2(O)CN(S(=O)(=O)c3ccc(C)cc3)C[C@@]2(OC(=O)NCc2ccco2)C[C@H]1C(=O)OC | inconclusive: 64.4%
28 | COc1ccc(CC(=O)Nc2ccc(S(=O)(=O)N3CCOCC3)cc2)cc1 | inconclusive: 24.6%
29 | CCN(CC)S(=O)(=O)c1ccc(N2CCOCC2)c(NC(=O)CSCc2c(C)noc2C)c1 | inactive: 5.01%
30 | COc1cccc(Nc2nc(C(N)c3ccccc3)cs2)n1 (stereo unspecified) | inconclusive: 52.6%
31 | O=S(=O)(c1ccccc1)N1CC2(C1)[C@@H](c1ccccc1)[C@@H](CO)N2CC1CCCC1 | active: 26.9%
32 | C[C@@H]1CN([C@@H](C)CO)C(=O)c2cc(NC(=O)CCCCCC(=O)Nc3ccccc3N)ccc2O[C@H]1CN(C)Cc1ccncc1 | active: 41.5%
33 | CCCNc1nc2c(c(=O)[nH]c(=O)n2C)n1Cc1ccc(F)cc1 | inconclusive: 26.6%
34 | COc1ccc(NC(=O)N(C)C[C@@H]2OCCCC[C@H](C)Oc3ccc(NC(=O)Cc4ccccc4)cc3C(=O)N([C@H](C)CO)C[C@@H]2C)cc1 | inactive: 6.37%
35 | CCN(Cc1nc2cc(Cl)ccc2c(=O)[nH]1)C(=O)c1cc(C2CC2)nn1-c1ccccc1 | inactive: -4.89%
36 | CCCCC(CC)C(=O)Oc1ccc(O)c(C(C)(C)C)c1 (stereo unspecified) | inactive: 11.4%
37 | OC[C@H]1[C@H](c2ccc(C#Cc3ccccc3)cc2)[C@@H]2CN(Cc3cncnc3)CCCCN12 | inactive: -0.2%
38 | CN1[C@@H]2c3ccc(C4=CCCCC4)c(=O)n3C[C@@H]2[C@@H](CO)[C@@H]1C(=O)NCc1ccccc1 | inconclusive: 46.8%
39 | CCC(=O)N(C)C[C@H]1Oc2cc(C#Cc3ccccc3)ccc2S(=O)(=O)N([C@@H](C)CO)C[C@H]1C | inactive: 2.92%
40 | CNC[C@H]1Oc2cc(C#CC(C)C)ccc2S(=O)(=O)N([C@@H](C)CO)C[C@H]1C | inconclusive: 33.7%
41 | Cc1ccc(S(=O)(=O)N[C@@H]2C=C[C@H](CC(=O)NCc3ccccc3F)O[C@H]2CO)cc1 | inactive: 6.28%
42 | O=C1Cc2cc(S(=O)(=O)N3CCN(c4cccc(Cl)c4)CC3)ccc2N1 | inconclusive: 30.8%
43 | O=C(CSc1nnc(-c2ccccc2F)n1C1CC1)NCc1ccco1 | inconclusive: 30.4%
44 | CC1(c2ccc(NC(=O)c3ccccc3F)cc2)CC1(Cl)Cl (stereo unspecified) | inconclusive: 28.1%
45 | C[C@@H]1CN([C@H](C)CO)C(=O)CCCn2cc(nn2)CO[C@H]1CN(C)Cc1ccc(C(=O)Nc2ccccc2N)cc1 | inactive: -4.63%
46 | COc1ccc(CCNCc2cc(C)n(-c3ccc(OC)cc3)c2C)cc1 | inactive: 2.66%

9 entries from above, reformatted.
Row	SMILES	CPE inhibition
24	O=C(CCN1CCCCC1)NCC[C@@H]1CC[C@H](NC(=O)C2CCC2)[C@@H](CO)O1	active: 45.7%
26	Cn1cnc(S(=O)(=O)N[C@@H]2CC[C@@H](CC(=O)N3CCN(c4ccccc4)CC3)O[C@H]2CO)c1	inactive: -6.48%
29	CCN(CC)S(=O)(=O)c1ccc(N2CCOCC2)c(NC(=O)CSCc2c(C)noc2C)c1	inactive: 5.01%
30	COc1cccc(Nc2nc(C(N)c3ccccc3)cs2)n1 (stereo unspecified)	inconclusive: 52.6%
33	CCCNc1nc2c(c(=O)[nH]c(=O)n2C)n1Cc1ccc(F)cc1	inconclusive: 26.6%
34	COc1ccc(NC(=O)N(C)C[C@@H]2OCCCC[C@H](C)Oc3ccc(NC(=O)Cc4ccccc4)cc3C(=O)N([C@H](C)CO)C[C@@H]2C)cc1	inactive: 6.37%
41	Cc1ccc(S(=O)(=O)N[C@@H]2C=C[C@H](CC(=O)NCc3ccccc3F)O[C@H]2CO)cc1	inactive: 6.28%
42	O=C1Cc2cc(S(=O)(=O)N3CCN(c4cccc(Cl)c4)CC3)ccc2N1	inconclusive: 30.8%
44	CC1(c2ccc(NC(=O)c3ccccc3F)cc2)CC1(Cl)Cl (stereo unspecified)	inconclusive: 28.1%
